The list shows a part of the results.
What follows are sequences tested against T1, OsSMF1 (Oryza sativa, UniProt Q6ZLB0 1-436) (assay: protein-binding microarray (RPBM); PBS, 2% BSA, 51.3 ng/ul salmon testes DNA, 50 uM zinc acetate, 200 nM TF, 25 C, 1 h; high values mean tight binding). Conditions: protein: recombinant; tags: N-terminal polyhistidine and DsRed monomer fusion (pET32a); chain copies: 2; label: CyDye5-dUTP incorporated in the synthesized complementary strand; 3' TTTTT single-stranded linker to array surface; dsDNA, one strand shown.
T1 sequence: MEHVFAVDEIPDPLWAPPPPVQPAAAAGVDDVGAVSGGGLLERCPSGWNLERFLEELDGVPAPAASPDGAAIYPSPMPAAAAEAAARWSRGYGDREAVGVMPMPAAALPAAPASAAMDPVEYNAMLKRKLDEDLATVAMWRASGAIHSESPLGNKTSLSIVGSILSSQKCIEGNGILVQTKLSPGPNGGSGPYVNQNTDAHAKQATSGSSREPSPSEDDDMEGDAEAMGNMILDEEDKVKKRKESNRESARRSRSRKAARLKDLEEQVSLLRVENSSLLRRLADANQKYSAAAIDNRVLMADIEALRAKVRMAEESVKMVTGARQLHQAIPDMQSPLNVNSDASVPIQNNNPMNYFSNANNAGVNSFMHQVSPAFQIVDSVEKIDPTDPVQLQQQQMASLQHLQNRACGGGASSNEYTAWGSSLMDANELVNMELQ
Procedure, shortened: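 Polyhistidine-tagged DsRed fusions of transcription factors, joined at the N-terminus, were expressed in E. coli BL21-CodonPlus and isolated on Ni–NTA. They were incubated at 200 nM for 1 h at 25 °C on a custom Agilent array, double-stranded and BSA-blocked, in PBS with 2% BSA, salmon testes DNA and 50 µM zinc acetate. The binding signal is per-feature fluorescence intensity (arbitrary units) read on an Axon 4000B scanner after washing.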
In the case of “GGTGAGGAGCACGCGCCACGTGTCTGTACCTGGGCCCAGACGGAGTCACCTAGTGCAG”, the binding signal is reported as 10700 fluorescence intensity (a.u.). In the case of “GAGGAGGCAAATGGGGAGGGGAAGCGATCGGAGGAGGCGGCGGAGTCACCTAGTGCAG”, the binding signal is reported as 3320 fluorescence intensity (a.u.). With “CGGGCTGCTCGGAGGGCGGGATCGGGCACGCGATGGCGCGCGGAGTCACCTAGTGCAG” the binding signal was 3190 fluorescence intensity (a.u.). In the case of “AATTATTGGCACGCTTAGCATCAATGACAACACAATTGTGCGGAGTCACCTAGTGCAG”, the binding signal is reported as 4440 fluorescence intensity (a.u.). “TATTTAAATTTTATATCCTAATTTTAAAATTGATTTTGATCGGAGTCACCTAGTGCAG” was tested, and the binding signal was 19700 fluorescence intensity (a.u.). In the case of “GAGCTAGTCCATAAATTTGTATAGGAATCTGAGGAAAGGGCGGAGTCACCTAGTGCAG”, the binding signal is reported as 7190 fluorescence intensity (a.u.). “CATGCCCTCAGATCCCATTGCTGAGTAGGACGCAGATTTTCGGAGTCACCTAGTGCAG” was tested, and the binding signal was 3520 fluorescence intensity (a.u.). In the case of “CCTCCACACCTACCAACCCTACTGTCACTAATAAATCATTCGGAGTCACCTAGTGCAG”, the binding signal is reported as 3520 fluorescence intensity (a.u.). In the case of “TGGCGCCGCCTCTTCTTGGTTCTTCAGCCACCCTCAACCCCGGAGTCACCTAGTGCAG”, the binding signal is reported as 3550 fluorescence intensity (a.u.). “ATCTCGCCTCTGTGTCGACCGATCGGCCGTTGATATGATACGGAGTCACCTAGTGCAG” was tested, and the binding signal was 4440 fluorescence intensity (a.u.). In the case of “CGCGGCAGTGCTCGAGCTTGTGCTCACGTCCGCGCTTGCCCGGAGTCACCTAGTGCAG”, the binding signal is reported as 3300 fluorescence intensity (a.u.). “CACGCAAAACACACGTAATCAATCTAGGGTTTGCCTCCTCCGGAGTCACCTAGTGCAG” was tested, and the binding signal was 5120 fluorescence intensity (a.u.). In the case of “GGCGTATGACGAGTGGGTCCACGCATCATCTATCTTCGTGCGGAGTCACCTAGTGCAG”, the binding signal is reported as 7330 fluorescence intensity (a.u.). “TATCCAGCACGAAAGACCAAGTAAATGGAACCTTGCATGTCGGAGTCACCTAGTGCAG” was tested, and the binding signal was 3390 fluorescence intensity (a.u.). In the case of “CCAGGTTGAGTGGGCTCAATGATTGCCCTGTAACGGCTAGCGGAGTCACCTAGTGCAG”, the binding signal is reported as 10400 fluorescence intensity (a.u.). With “ATAATGCTGACTGAACTGCCATGTGTACGCCACGTAGACCCGGAGTCACCTAGTGCAG” the binding signal was 27600 fluorescence intensity (a.u.). In the case of “CTTTCTTCTTCCTCGCCCACGCGCGTGGCGCCGCCGCCGCCGGAGTCACCTAGTGCAG”, the binding signal is reported as 3640 fluorescence intensity (a.u.). With “TAAAGATCTATATATCCAATTTACATGACACATGTTTCGCCGGAGTCACCTAGTGCAG” the binding signal was 17100 fluorescence intensity (a.u.). For “TCCGTCAATGGCGGGAATACATGACGTGTTCCATGTGTCGCGGAGTCACCTAGTGCAG”, the binding signal was 18800 fluorescence intensity (a.u.). “AAGCTATAATCTATCATTGTTCGTAACATGACAAGGATTTCGGAGTCACCTAGTGCAG” was tested, and the binding signal was 4350 fluorescence intensity (a.u.). In the case of “AGGCCACGTGCTCCTCCCCACATACGCCTCGTCGAGTTGTCGGAGTCACCTAGTGCAG”, the binding signal is reported as 4600 fluorescence intensity (a.u.). In the case of “GCAGCAGCAGAAGAAGGACAGGAACACGTCGGAGACAATGCGGAGTCACCTAGTGCAG”, the binding signal is reported as 4080 fluorescence intensity (a.u.). “GCCAACGCCCTCGCTGGCGGCAGCGCCGGCGCCAACGGCCCGGAGTCACCTAGTGCAG” was tested, and the binding signal was 21500 fluorescence intensity (a.u.). With “GCATGGTGGCGGCGGGAAGGAGGAGTGGGGCGGCGGGTGCCGGAGTCACCTAGTGCAG” the binding signal was 3770 fluorescence intensity (a.u.). With “GCCATCTGCTGCCGATGATTAGCGATGGATTATTATATCGCGGAGTCACCTAGTGCAG” the binding signal was 3140 fluorescence intensity (a.u.). For “GGCAGCTTGGTGCGGGAGAGAGGCGGCGGCGAAGGGGAGACGGAGTCACCTAGTGCAG”, the binding signal was 41900 fluorescence intensity (a.u.). For “TCAGCCCAGCCACATCACCGCCCACTCCACCACCCCACCCCGGAGTCACCTAGTGCAG”, the binding signal was 9890 fluorescence intensity (a.u.). With “CAATCACACCACACGTTTACAACCAGAGGCTGCTACTGAACGGAGTCACCTAGTGCAG” the binding signal was 3600 fluorescence intensity (a.u.). With “TCAACCGGTCGGTATCTAAACCCTCTCCCTTTCATCTAGACGGAGTCACCTAGTGCAG” the binding signal was 17500 fluorescence intensity (a.u.). In the case of “CCAGCACAGTAGTTAGCATATGACAAGTGACAACATGCAACGGAGTCACCTAGTGCAG”, the binding signal is reported as 3640 fluorescence intensity (a.u.). With “TTATGTGTGCGTGGGCCATTAATTTACACTTGCATGTCAGCGGAGTCACCTAGTGCAG” the binding signal was 4810 fluorescence intensity (a.u.). In the case of “CGGGACCGGGACCCACCCAGACGTGGACGCGCTCACTGGACGGAGTCACCTAGTGCAG”, the binding signal is reported as 3850 fluorescence intensity (a.u.). For “AGTAGAATTCCTCTGATGCAACTCGCCAGAAATGATCTCACGGAGTCACCTAGTGCAG”, the binding signal was 3820 fluorescence intensity (a.u.). In the case of “CGGACACGTTGAGGCCTCCACGTGGGCCATGTTTGACGGGCGGAGTCACCTAGTGCAG”, the binding signal is reported as 10700 fluorescence intensity (a.u.). “ACCACGTGTTCGCGTCACGGACCTACTCTGCCGTCACCGACGGAGTCACCTAGTGCAG” was tested, and the binding signal was 5130 fluorescence intensity (a.u.). “TACTTGTGCTTTGACATGTATCCGACGTGGCTCATGAACCCGGAGTCACCTAGTGCAG” was tested, and the binding signal was 11800 fluorescence intensity (a.u.). In the case of “CACGTCCTCACCAACCAACCATGCAAGCCCGCTCGACCCCCGGAGTCACCTAGTGCAG”, the binding signal is reported as 3220 fluorescence intensity (a.u.). With “ATAAGGATAATGACGAATCCGTGATGAATCCTGAGACGTACGGAGTCACCTAGTGCAG” the binding signal was 4410 fluorescence intensity (a.u.). With “TCTGATGGGCGCTGGCTATCAATGTATGTCACTGTGTTGTCGGAGTCACCTAGTGCAG” the binding signal was 4300 fluorescence intensity (a.u.). In the case of “AGGACCACGTATTACCCGTACAAATTAGCAACCGCGCGCGCGGAGTCACCTAGTGCAG”, the binding signal is reported as 6640 fluorescence intensity (a.u.). With “ACCCAAGGATCCCCACGTCATTACCGTAGCAGCACTTTAGCGGAGTCACCTAGTGCAG” the binding signal was 9640 fluorescence intensity (a.u.). For “GTACTCCATGTAGATGTACATAGTGCTCCATGTAGATGTACGGAGTCACCTAGTGCAG”, the binding signal was 3190 fluorescence intensity (a.u.). In the case of “TGTTTTCCAAGTAGGTAAAGATATAGATTTACGTTGGATTCGGAGTCACCTAGTGCAG”, the binding signal is reported as 3350 fluorescence intensity (a.u.). “AATAGAGGCCTCGGACTTCAGGCCTACAACGTGGCCTGTCCGGAGTCACCTAGTGCAG” was tested, and the binding signal was 3750 fluorescence intensity (a.u.). For “CTAATCAACCCCTCCCCTAACCTTACCACCACCCAAAGCCCGGAGTCACCTAGTGCAG”, the binding signal was 3600 fluorescence intensity (a.u.). For “TCATACATTAAAATACGGAGGGAGTATATGTATACTTGCACGGAGTCACCTAGTGCAG”, the binding signal was 3450 fluorescence intensity (a.u.). In the case of “TCGACGACGAGGCGTGGCGTGGCGGTGGACTTCCCGTCACCGGAGTCACCTAGTGCAG”, the binding signal is reported as 3240 fluorescence intensity (a.u.). In the case of “TGGGCTAAACGCATCAATCACACACGCAACGTGGACGGGCCGGAGTCACCTAGTGCAG”, the binding signal is reported as 4440 fluorescence intensity (a.u.). For “AAGAATTGCCACGCATTTCTACCCTCGATATTCCTCCAACCGGAGTCACCTAGTGCAG”, the binding signal was 6410 fluorescence intensity (a.u.). For “GCTTTACGTCTTGTGTGGAAGAAAGCGGAAAACTATCCAGCGGAGTCACCTAGTGCAG”, the binding signal was 3540 fluorescence intensity (a.u.). With “AATCTCTTTCAAATAGGAAAATATGCTGACTTGGATATCTCGGAGTCACCTAGTGCAG” the binding signal was 5890 fluorescence intensity (a.u.). In the case of “GACCGTCGCGTCCATCTGCACTGCCACCTGCACGGCAGCCCGGAGTCACCTAGTGCAG”, the binding signal is reported as 3390 fluorescence intensity (a.u.). In the case of “GGCACTGATCTCACTGAGCTGCGTGTGCTACGTATGCAGCCGGAGTCACCTAGTGCAG”, the binding signal is reported as 4370 fluorescence intensity (a.u.). With “GTCTTAAATGTGGGCCCCACGTGCTGACTCAGCCGATTGTCGGAGTCACCTAGTGCAG” the binding signal was 12900 fluorescence intensity (a.u.).
